Data published in the supplement of paper PMC10849652.
The other results are listed elsewhere or left out.

Amino acid sequences for entries named in this document (tags omitted). A change or cut given only in a name is not applied to a line headed by its entry.
UniProt Q8IV08: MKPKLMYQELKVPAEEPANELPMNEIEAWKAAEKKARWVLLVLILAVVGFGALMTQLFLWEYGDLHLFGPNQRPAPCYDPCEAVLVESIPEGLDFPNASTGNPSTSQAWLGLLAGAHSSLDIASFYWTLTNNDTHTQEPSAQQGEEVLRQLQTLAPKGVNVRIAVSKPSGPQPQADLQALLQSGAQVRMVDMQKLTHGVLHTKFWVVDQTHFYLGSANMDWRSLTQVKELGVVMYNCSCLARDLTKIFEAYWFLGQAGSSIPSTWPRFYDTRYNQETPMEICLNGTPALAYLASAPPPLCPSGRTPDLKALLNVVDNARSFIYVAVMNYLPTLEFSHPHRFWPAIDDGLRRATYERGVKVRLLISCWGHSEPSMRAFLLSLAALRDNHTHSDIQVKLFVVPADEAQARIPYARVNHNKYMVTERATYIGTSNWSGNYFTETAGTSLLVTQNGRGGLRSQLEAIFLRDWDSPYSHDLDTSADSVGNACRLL
UniProt P48739: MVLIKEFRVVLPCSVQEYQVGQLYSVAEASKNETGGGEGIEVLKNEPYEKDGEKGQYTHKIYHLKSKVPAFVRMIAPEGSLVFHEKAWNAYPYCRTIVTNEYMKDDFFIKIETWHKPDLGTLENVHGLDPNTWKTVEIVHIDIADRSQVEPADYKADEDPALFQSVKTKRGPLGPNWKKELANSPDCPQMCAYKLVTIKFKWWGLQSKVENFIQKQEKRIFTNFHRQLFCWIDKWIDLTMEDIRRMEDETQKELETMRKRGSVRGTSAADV
UniProt P30613: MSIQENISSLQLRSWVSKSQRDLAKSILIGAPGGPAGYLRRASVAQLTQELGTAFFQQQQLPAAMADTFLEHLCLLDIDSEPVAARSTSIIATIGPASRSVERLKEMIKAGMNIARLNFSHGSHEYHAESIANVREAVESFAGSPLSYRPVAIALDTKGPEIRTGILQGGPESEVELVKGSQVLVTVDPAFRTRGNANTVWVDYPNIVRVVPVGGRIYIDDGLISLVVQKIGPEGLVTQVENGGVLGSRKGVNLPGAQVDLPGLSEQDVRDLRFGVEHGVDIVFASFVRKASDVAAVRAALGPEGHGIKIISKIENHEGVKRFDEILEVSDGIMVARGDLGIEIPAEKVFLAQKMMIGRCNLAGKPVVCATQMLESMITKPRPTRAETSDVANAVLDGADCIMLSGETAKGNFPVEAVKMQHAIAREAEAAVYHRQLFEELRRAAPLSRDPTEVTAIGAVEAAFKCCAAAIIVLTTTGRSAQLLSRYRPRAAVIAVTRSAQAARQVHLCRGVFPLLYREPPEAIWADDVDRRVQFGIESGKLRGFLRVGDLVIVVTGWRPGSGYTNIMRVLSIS
UniProt Q9Y263: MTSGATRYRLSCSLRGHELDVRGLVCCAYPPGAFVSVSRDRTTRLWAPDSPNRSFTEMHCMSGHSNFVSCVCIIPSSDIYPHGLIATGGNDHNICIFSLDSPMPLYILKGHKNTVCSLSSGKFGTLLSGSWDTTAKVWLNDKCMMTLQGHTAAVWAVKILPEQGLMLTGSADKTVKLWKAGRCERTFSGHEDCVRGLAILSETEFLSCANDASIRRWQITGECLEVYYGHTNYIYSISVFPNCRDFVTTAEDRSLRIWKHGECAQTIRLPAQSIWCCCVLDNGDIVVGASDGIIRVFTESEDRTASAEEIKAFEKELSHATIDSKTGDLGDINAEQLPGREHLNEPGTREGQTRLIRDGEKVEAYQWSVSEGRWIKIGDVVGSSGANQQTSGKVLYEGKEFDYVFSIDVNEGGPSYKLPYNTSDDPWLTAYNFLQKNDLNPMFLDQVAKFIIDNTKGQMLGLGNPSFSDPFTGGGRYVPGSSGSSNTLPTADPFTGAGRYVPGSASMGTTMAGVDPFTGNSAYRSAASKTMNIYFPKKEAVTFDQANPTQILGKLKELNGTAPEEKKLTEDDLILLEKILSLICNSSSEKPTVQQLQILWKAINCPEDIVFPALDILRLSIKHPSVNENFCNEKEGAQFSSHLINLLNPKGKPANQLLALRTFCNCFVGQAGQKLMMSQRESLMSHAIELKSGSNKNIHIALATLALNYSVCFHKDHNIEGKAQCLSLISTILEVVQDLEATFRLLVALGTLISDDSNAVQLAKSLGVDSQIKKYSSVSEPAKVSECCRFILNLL
UniProt P17858: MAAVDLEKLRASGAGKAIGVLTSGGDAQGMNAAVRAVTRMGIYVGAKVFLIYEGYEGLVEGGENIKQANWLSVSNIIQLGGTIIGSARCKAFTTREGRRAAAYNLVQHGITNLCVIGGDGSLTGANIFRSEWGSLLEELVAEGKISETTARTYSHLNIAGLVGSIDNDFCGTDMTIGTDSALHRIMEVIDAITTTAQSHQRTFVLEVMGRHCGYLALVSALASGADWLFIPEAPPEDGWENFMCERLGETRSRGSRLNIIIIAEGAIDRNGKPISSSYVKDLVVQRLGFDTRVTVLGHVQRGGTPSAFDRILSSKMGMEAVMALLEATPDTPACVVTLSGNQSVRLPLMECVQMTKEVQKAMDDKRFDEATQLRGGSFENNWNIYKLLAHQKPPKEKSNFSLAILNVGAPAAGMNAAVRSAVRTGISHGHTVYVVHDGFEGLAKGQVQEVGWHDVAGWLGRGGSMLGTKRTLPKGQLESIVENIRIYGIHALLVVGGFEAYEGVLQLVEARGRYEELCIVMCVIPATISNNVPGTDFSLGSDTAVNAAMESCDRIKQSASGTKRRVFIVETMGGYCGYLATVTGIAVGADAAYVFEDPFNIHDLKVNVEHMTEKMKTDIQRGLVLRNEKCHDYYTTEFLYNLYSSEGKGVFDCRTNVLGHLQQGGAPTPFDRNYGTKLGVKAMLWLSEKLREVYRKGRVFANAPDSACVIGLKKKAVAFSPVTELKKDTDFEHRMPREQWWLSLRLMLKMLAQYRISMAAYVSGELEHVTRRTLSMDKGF
UniProt Q8N4L2: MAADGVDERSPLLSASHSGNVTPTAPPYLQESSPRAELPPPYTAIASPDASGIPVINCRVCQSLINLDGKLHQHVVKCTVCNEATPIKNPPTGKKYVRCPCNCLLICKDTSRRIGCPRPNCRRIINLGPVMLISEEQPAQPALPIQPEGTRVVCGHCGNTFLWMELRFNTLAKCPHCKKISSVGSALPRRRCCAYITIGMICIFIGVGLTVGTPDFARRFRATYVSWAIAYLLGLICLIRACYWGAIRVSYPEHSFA
UniProt Q9UBF8: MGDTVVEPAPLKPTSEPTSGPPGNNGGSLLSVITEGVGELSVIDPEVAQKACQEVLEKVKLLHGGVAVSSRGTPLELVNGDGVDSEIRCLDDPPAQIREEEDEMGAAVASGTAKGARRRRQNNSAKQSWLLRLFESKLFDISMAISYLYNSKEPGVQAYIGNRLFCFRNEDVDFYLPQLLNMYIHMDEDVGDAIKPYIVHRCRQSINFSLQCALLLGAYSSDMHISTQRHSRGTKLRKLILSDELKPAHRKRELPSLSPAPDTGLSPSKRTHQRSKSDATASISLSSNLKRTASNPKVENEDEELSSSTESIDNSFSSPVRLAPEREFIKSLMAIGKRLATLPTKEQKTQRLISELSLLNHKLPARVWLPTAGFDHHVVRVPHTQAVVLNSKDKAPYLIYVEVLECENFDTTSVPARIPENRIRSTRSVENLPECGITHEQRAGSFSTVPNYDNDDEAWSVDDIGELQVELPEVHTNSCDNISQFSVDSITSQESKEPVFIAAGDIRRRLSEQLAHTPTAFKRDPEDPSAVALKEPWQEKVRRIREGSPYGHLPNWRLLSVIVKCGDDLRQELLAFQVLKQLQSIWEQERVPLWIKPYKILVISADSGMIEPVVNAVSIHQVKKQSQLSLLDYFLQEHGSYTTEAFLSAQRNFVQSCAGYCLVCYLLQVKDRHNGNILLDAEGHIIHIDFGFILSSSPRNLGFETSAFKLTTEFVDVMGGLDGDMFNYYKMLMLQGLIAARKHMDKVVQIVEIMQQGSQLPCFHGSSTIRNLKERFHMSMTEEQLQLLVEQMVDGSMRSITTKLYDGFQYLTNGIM
UniProt Q9BUL5: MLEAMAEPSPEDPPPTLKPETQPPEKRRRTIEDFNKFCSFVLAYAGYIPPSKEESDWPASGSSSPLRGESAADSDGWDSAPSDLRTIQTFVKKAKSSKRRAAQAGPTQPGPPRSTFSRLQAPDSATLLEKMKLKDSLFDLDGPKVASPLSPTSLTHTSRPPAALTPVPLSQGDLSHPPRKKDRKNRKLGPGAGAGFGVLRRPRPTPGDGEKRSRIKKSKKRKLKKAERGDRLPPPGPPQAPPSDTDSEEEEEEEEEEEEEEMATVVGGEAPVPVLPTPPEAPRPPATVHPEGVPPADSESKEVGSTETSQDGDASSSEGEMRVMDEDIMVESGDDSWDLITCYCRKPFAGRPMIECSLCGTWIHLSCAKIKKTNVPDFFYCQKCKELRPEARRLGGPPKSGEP
UniProt Q00169: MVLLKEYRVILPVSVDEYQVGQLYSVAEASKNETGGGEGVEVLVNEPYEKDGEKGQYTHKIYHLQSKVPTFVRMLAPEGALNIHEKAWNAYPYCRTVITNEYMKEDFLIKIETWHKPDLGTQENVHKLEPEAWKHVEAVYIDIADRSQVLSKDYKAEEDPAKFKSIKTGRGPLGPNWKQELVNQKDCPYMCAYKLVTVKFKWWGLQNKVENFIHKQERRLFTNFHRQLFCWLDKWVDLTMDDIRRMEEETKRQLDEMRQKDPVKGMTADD
UniProt P18669: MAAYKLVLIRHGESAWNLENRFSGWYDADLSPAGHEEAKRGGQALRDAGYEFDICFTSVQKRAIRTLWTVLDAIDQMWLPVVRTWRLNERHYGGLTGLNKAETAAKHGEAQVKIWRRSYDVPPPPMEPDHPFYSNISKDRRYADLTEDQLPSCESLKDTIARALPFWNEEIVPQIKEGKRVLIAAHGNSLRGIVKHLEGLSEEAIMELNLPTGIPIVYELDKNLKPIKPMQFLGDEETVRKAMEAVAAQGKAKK
UniProt Q9NRX4: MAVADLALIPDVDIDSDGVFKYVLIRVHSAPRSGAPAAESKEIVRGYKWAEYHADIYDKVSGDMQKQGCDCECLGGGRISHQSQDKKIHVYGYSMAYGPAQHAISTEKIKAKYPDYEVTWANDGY
UniProt Q13526, whole entry, looked up: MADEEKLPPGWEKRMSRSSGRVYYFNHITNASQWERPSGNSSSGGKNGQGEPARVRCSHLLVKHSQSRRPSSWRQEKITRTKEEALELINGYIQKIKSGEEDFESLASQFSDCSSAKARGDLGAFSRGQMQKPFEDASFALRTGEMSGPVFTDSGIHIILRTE
UniProt Q7RTV0, whole entry, looked up: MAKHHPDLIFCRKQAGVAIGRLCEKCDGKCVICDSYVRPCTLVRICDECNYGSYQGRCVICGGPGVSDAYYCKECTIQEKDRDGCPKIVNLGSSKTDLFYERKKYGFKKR
UniProt Q9Y5Y5: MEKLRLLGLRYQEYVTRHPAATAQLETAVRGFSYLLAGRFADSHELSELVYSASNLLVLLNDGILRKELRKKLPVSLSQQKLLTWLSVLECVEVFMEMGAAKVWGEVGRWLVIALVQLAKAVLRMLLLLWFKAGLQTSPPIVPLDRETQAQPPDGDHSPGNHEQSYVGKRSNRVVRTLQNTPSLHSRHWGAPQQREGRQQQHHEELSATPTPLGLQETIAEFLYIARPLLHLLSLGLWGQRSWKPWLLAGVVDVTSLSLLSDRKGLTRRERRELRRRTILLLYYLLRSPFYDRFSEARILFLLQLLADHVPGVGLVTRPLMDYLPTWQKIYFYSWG
UniProt O00625: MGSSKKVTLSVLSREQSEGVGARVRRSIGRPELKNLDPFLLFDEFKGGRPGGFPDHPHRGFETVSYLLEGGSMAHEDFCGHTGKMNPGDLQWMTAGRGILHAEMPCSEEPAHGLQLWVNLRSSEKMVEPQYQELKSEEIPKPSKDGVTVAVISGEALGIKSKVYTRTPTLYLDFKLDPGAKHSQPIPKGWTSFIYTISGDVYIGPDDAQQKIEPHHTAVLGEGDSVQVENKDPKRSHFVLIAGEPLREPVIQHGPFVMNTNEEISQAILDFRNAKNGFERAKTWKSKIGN
UniProt O60825: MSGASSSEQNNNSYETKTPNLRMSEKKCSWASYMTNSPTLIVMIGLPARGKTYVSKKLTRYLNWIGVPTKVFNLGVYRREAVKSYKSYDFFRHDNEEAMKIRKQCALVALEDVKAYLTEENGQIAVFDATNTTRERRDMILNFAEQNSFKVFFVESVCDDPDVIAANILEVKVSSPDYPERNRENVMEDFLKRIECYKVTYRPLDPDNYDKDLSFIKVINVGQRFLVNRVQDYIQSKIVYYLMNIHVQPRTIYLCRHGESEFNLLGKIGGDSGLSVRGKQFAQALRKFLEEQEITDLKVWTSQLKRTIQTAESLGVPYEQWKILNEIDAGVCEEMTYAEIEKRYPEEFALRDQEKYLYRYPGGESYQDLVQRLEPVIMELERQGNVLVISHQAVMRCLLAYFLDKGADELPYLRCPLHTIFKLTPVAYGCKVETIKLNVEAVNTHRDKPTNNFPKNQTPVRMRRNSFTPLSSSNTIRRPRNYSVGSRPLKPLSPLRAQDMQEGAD
UniProt O60925, whole entry, looked up: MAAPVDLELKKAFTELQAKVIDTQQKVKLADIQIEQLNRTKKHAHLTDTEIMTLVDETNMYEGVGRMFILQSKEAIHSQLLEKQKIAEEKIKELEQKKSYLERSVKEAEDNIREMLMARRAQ

Legend:
Test in all cases: log2 fold change, soluble protein after heating vs DMSO (PISA); higher = thermal stabilisation; K562 cells, 10 uM, 30 min; active = over 0.2 and 3.5 SD of the protein, either way, in both replicates (recomputed)
[1] = compound: NC(=O)Nc1cc(-c2cccc(F)c2)sc1C(=O)N[C@H]1CCCNC1
How it was run: (§1)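 For each measurement, 10 μM compound was applied for 30 min to K562 cells at 2×10^6 cells/mL. Aliquots were heated for 3 min across 48°C-58°C, pooled, and extracted in PBS with 0.5% NP-40 at 4°C; the supernatant after 21,000xg for 90 min was soluble protein. This was quantified by TMTpro 16plex LC-MS/MS with channel sums equalised, and thermal stability was reported relative to control samples from duplicates, on a log2 fold-change scale.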

[2] = compound: NC(=O)c1cnc(N[C@@H]2CCCC[C@@H]2N)nc1Nc1cccc(-n2nccn2)c1
How it was run: as §1

[3] = compound: NC1(c2ccc(-c3nc4ccn5c(=O)[nH]nc5c4cc3-c3ccccc3)cc2)CCC1
How it was run: as §1

[4] = compound: NCC(=O)Nc1ccc(-n2nc(C(F)(F)F)cc2-c2ccc3c(ccc4ccccc43)c2)cc1
How it was run: as §1

[5] = compound: Nc1ccccc1NC(=O)c1ccc(CNC(=O)OCc2cccnc2)cc1 [entinostat]
How it was run: as §1

[6] = compound: O=C(CCCCCCC(=O)Nc1ccccc1)NO [vorinostat]
How it was run: as §1

[7] = compound: O=C(CCCCCCNC(=O)c1cnc(N(c2ccccc2)c2ccccc2Cl)nc1)NO [citarinostat]
How it was run: as §1

[8] = compound: O=C(O)c1ccc2c(c1)nc(Nc1cccc(Cl)c1)c1ccncc12 [silmitasertib]
How it was run: as §1

[9] = compound: O=C1NC(=O)C(c2cnc3ccccn23)=C1c1cn2c3c(cc(F)cc13)CN(C(=O)N1CCCCC1)CC2
How it was run: as §1

[10] = compound: c1cc(OCCN2CCCCC2)cc(-c2n[nH]c3ccc(-c4nnc[nH]4)cc23)c1
How it was run: as §1

Target	log2 fold change [1]	log2 fold change [2]	log2 fold change [3]	log2 fold change [4]	log2 fold change [5]	log2 fold change [6]	log2 fold change [7]	log2 fold change [8]	log2 fold change [9]	log2 fold change [10]
PEX19 (UniProt P40855)	inactive: 0.043	inactive: 0.038	inactive: 0.058	inactive: 0.026	inactive: -0.015	inactive: 0.004	inactive: -0.025	inactive: -0.005	inactive: -0.009	inactive: 0.051
PLD3 (UniProt Q8IV08)	inactive: 0.008	inactive: -0.005	inactive: -0.177	inactive: -0.051	inactive: 0.009	inactive: 0.022	inactive: 0.034	inactive: 0.006	inactive: 0.024	inactive: 0.067
PITPNB isoform 3 (UniProt P48739)	inactive: -0.029	inactive: -0.005	inactive: 0.051	inactive: -0.021	inactive: -0.038	inactive: -0.033	inactive: 0.035	inactive: -0.016	inactive: 0.004	inactive: -0.035
PKLR (UniProt P30613)	inactive: 0.03	inactive: 0.009	inactive: 0.005	inactive: 0.052	inactive: -0.021	inactive: 0.016	inactive: 0.018	inactive: -0.034	inactive: -0.026	inactive: 0.005
PLAA (UniProt Q9Y263)	inactive: -0.022	inactive: -0.063	inactive: -0.118	inactive: -0.081	inactive: 0.033	inactive: 0.111	inactive: 0.029	inactive: 0.025	inactive: -0.116	inactive: -0.092
PFKL isoform 2 (UniProt P17858)	inactive: 0.009	inactive: 0.01	inactive: 0.007	inactive: 0.009	inactive: -0.027	inactive: -0.008	inactive: 0.038	inactive: -0.014	inactive: -0.039	inactive: -0.046
PLCH1 (UniProt Q4KWH8)	inactive: -0.069	inactive: -0.053	inactive: -0.191	inactive: -0.088	inactive: -0.059	inactive: -0.095	inactive: 0.074	inactive: 0.04	inactive: -0.061	inactive: -0.009
PIP4P2 (UniProt Q8N4L2)	inactive: 0.02	inactive: -0.152	active: -0.373	inactive: -0.024	inactive: 0.007	inactive: 0.042	inactive: -0.02	inactive: 0.074	inactive: 0.082	inactive: 0.051
PI4KB (UniProt Q9UBF8)	inactive: -0.025	inactive: -0.042	inactive: -0.137	inactive: -0.068	inactive: 0.044	inactive: 0.037	inactive: 0.004	inactive: -0.058	inactive: -0.037	inactive: -0.062
PHF23 (UniProt Q9BUL5)	inactive: -0.002	inactive: 0.011	inactive: 0.015	inactive: -0.026	inactive: -0.074	inactive: 0.014	inactive: -0.064	inactive: -0.056	inactive: 0.012	inactive: -0.023
PITPNA (UniProt Q00169)	inactive: 0.022	inactive: 0.005	inactive: 0.012	inactive: -0.054	inactive: -0.027	inactive: -0.024	inactive: 0.049	inactive: -0.009	inactive: -0.011	inactive: 0.017
PHKB isoform 3 (UniProt Q93100)	inactive: 0.012	inactive: -0.051	inactive: -0.123	inactive: -0.037	inactive: -0.032	inactive: 0.022	inactive: 0.022	inactive: 0.049	inactive: -0.025	inactive: 0.096
PGAM1 (UniProt P18669)	inactive: 0.086	inactive: 0.004	inactive: 0.05	inactive: 0.027	inactive: -0.006	inactive: 0.019	inactive: -0.018	inactive: -0.037	inactive: -0.006	inactive: 0.044
PHPT1 (UniProt Q9NRX4)	inactive: -0.049	inactive: -0.066	inactive: -0.025	inactive: -0.014	inactive: 0	inactive: -0.024	inactive: 0.019	inactive: 0.01	inactive: -0.072	inactive: 0.018
PIN1 (UniProt Q13526)	inactive: -0.018	inactive: 0.004	inactive: -0.025	inactive: 0.031	inactive: 0.042	inactive: -0.042	inactive: 0.106	inactive: 0.037	inactive: -0.08	inactive: 0.09
PHF5A (UniProt Q7RTV0)	inactive: -0.004	inactive: 0.009	inactive: 0.101	inactive: 0.051	inactive: -0.017	inactive: -0.08	inactive: 0.014	inactive: 0.082	inactive: -0.024	inactive: -0.003
PLEC (UniProt Q15149)	inactive: -0.047	inactive: 0.015	inactive: 0.122	inactive: -0.052	inactive: -0.019	inactive: 0.032	inactive: 0.011	inactive: -0.019	inactive: 0.028	inactive: -0.04
PIP4K2B (UniProt P78356)	inactive: 0.06	inactive: 0.083	inactive: -0.053	inactive: 0.118	inactive: 0.096	inactive: 0.053	inactive: -0.009	inactive: 0.202	inactive: 0.044	inactive: 0.069
PIEZO1 (UniProt Q92508)	inactive: -0.138	inactive: -0.004	inactive: -0.014	inactive: 0.013	inactive: -0.057	inactive: -0.067	inactive: 0.006	inactive: 0.007	inactive: 0.032	inactive: -0.043
PEX16 isoform 2 (UniProt Q9Y5Y5)	inactive: 0.061	inactive: -0.052	inactive: -0.171	inactive: -0.031	inactive: 0.022	inactive: 0.115	inactive: 0.081	inactive: -0.025	inactive: 0.033	inactive: -0.051
PIR (UniProt O00625)	inactive: -0.047	inactive: -0.053	inactive: -0.195	inactive: -0.024	inactive: -0.022	active: -0.625	inactive: -0.014	inactive: -0.038	inactive: -0.012	active: 0.253
PFKFB2 (UniProt O60825)	inactive: 0.003	inactive: -0.009	inactive: -0.08	inactive: -0.026	inactive: 0.006	inactive: 0	inactive: 0.018	inactive: -0.052	inactive: -0.01	inactive: 0.007
PLBD2 (UniProt Q8NHP8)	inactive: -0.002	inactive: 0.049	inactive: -0.091	inactive: -0.004	inactive: -0.008	inactive: -0.073	inactive: 0.003	inactive: 0.017	inactive: 0.001	inactive: -0.006
PFDN1 (UniProt O60925)	inactive: 0.013	inactive: 0.003	inactive: 0.002	inactive: -0.047	inactive: 0.044	inactive: -0.056	inactive: 0.09	inactive: -0.029	inactive: -0.05	inactive: -0.001
PKN2 (UniProt Q16513)	inactive: -0.055	inactive: -0.134	inactive: -0.051	inactive: -0.021	inactive: 0.105	inactive: 0.023	inactive: 0.073	inactive: 0.01	inactive: -0.008	inactive: -0.086
PGAM5 (UniProt Q96HS1)	inactive: 0.068	inactive: 0.066	inactive: 0.194	inactive: 0.04	inactive: -0.006	inactive: 0.019	inactive: -0.098	inactive: 0.13	inactive: 0.187	inactive: -0.093
PGRMC1 (UniProt O00264)	inactive: 0.002	inactive: 0	inactive: 0.068	inactive: 0.085	inactive: 0.027	inactive: -0.053	inactive: -0.046	inactive: -0.01	inactive: -0.029	inactive: -0.018
PEX7 (UniProt O00628)	inactive: -0.017	inactive: -0.031	inactive: -0.022	inactive: -0.03	inactive: -0.077	inactive: 0.013	inactive: 0.074	inactive: -0.017	inactive: -0.051	inactive: 0.042
PICALM (UniProt H0YEY8)	inactive: -0.08	inactive: -0.181	inactive: -0.142	inactive: -0.03	inactive: -0.019	inactive: 0.031	inactive: 0.091	inactive: 0.047	inactive: -0.068	inactive: 0.078

Taken from the results shown for reference:
Target	log2 fold change [1]	log2 fold change [2]	log2 fold change [3]	log2 fold change [4]	log2 fold change [5]	log2 fold change [6]	log2 fold change [7]	log2 fold change [8]	log2 fold change [9]	log2 fold change [10]
PEX19 (UniProt P40855)	inactive: 0.043	inactive: 0.038	inactive: 0.058	inactive: 0.026	inactive: -0.015	inactive: 0.004	inactive: -0.025	inactive: -0.005	inactive: -0.009	inactive: 0.051
PLD3 (UniProt Q8IV08)	inactive: 0.008	inactive: -0.005	inactive: -0.177	inactive: -0.051	inactive: 0.009	inactive: 0.022	inactive: 0.034	inactive: 0.006	inactive: 0.024	inactive: 0.067
PITPNB isoform 3 (UniProt P48739)	inactive: -0.029	inactive: -0.005	inactive: 0.051	inactive: -0.021	inactive: -0.038	inactive: -0.033	inactive: 0.035	inactive: -0.016	inactive: 0.004	inactive: -0.035
PKLR (UniProt P30613)	inactive: 0.03	inactive: 0.009	inactive: 0.005	inactive: 0.052	inactive: -0.021	inactive: 0.016	inactive: 0.018	inactive: -0.034	inactive: -0.026	inactive: 0.005
PLAA (UniProt Q9Y263)	inactive: -0.022	inactive: -0.063	inactive: -0.118	inactive: -0.081	inactive: 0.033	inactive: 0.111	inactive: 0.029	inactive: 0.025	inactive: -0.116	inactive: -0.092
PFKL isoform 2 (UniProt P17858)	inactive: 0.009	inactive: 0.01	inactive: 0.007	inactive: 0.009	inactive: -0.027	inactive: -0.008	inactive: 0.038	inactive: -0.014	inactive: -0.039	inactive: -0.046
